The values that follow come from PMC12670160, “A drug-repurposing screen of FDA- and EMA-approved drugs identifies two NF-κB inhibitors active against eumycetoma” (Journal of Antimicrobial Chemotherapy, 2025).

The structures appear in SMILES notation. Counter-ions that a name gives are not always drawn. The whole screen tested about 5,300 compounds, of which about 130 (2.5%) showed an effect of 50% or more. The list shows a part of the results.

The subject of the assay is M. mycetomatis strain mm55. To be noted: primary screen, metabolic activity vs growth control; 96 h, 2 µM; inhibitor.
Consider `Cc1cc(Cl)ccc1OCCCC(=O)NO` [ONC0004783, droxinostat], for which the “% viability” value was found to be 69.65%.

On to `Cc1ccc(-n2sc(=O)n(Cc3ccc(F)cc3)c2=O)cc1` [ONC0005259, ccg 50014], for which the “% viability” value came out at 100.7%.

`[2H]C([2H])([2H])C(=O)Nc1c(I)c(C(=O)O)c(I)c(C(=O)NC)c1I` [ONC0002149, iothalamic acidd3]: the “% viability” value is given as 66.44%.

`COc1cccc(OC)c1-c1cc(C(=O)N[C@@H](CC(C)C)C(=O)O)nn1-c1ccnc2cc(Cl)ccc12` [ONC0003540, tcntr117]: the “% viability” value was found to be 96.98%.

In the case of `O=C(c1ccc(/C=C/c2n[nH]c3ccccc23)cc1)N1CCNCC1` [ONC0004863, kw 2449], the “% viability” value came out at 137.7%.

Turning to `Cc1cccc(NC(=O)N[C@@H]2N=C(c3ccccc3)c3ccccc3N(CC(=O)c3ccccc3C)C2=O)c1` [ONC0005568, ym022], the “% viability” value is 88.21%.

Take `C/C(=C\C(=O)Nc1ccccc1C(=O)O)c1ccc2ccccc2c1` [ONC0004705, bibr1532]: the “% viability” value was 122.5%.

Consider `C=CCNC(=O)c1cc([N+](=O)[O-])cc2c(=O)[nH]c(Nc3ccc(Cl)c(Cl)c3)nc12` [ONC0001510, az10417808], for which the “% viability” value is 123.7%.

`Cc1onc(-c2c(F)cccc2Cl)c1C(=O)N[C@@H]1C(=O)N2[C@@H]1SC(C)(C)[C@@H]2C(=O)O` [ONC0005497, flucloxacillin]: the “% viability” value is 108.2%.

As to `C[C@H](Cc1cc2c(c(C(N)=O)c1)N(CCCO)CC2)NCCOc1ccccc1OCC(F)(F)F` [ONC0004909, silodosin], the “% viability” value is given as 131.4%.

As for `NS(=O)(=O)OC[C@@H]1C[C@@H](n2ccc3c(N[C@H]4CCc5ccccc54)ncnc32)C[C@@H]1O` [ONC0001277, pevonedistat hydrochloride], the “% viability” value was determined as 68.15%.

`O=C(CNC(=O)c1cccc(C(F)(F)F)c1)N[C@@H]1CCN(Cc2ccc(Cl)cc2)C1` [ONC0002608, teijincompound1]: the “% viability” value was found to be 76.98%.

Take `CCCC(CCC)C(=O)NCc1ccc2c(cnn2-c2ccccc2OC)c1` [ONC0004484, m25]: the “% viability” value is recorded as 125.7%.

Turning to `CN(C)CCCSC(=N)N` [ONC0002709, dimaprit], the “% viability” value was determined as 76.78%.

In the case of `CN(C)CCOc1ccc(-c2nc(-c3ccncc3)c(-c3ccc4c(c3)CC/C4=N\O)[nH]2)cc1` [ONC0004948, sb590885], the “% viability” value is 61.96%.

For `NCCNCCNCCN` [ONC0004085, trientine hydrochloride], the “% viability” value is listed as 111.6%.

Consider `N=C(N)NCc1cccc(I)c1` [ONC0003466, iobenguane], for which the “% viability” value was 63.28%.

Turning to `Cc1ccnc(NS(=O)(=O)c2ccc(N)cc2)n1` [ONC0000569, sulfamerazine], the “% viability” value is listed as 86.54%.

Regarding `O=C(CC12CC3CC(CC(C3)C1)C2)Nc1cccc2nc(NCCNCCO)ccc12` [ONC0000876, az10606120], the “% viability” value was found to be 62.75%.

For `C[C@H]1NC(=O)NC1=O` [ONC0002790, d5methylhydantoin], the “% viability” value amounted to 119%.

`CCC[S+]([O-])c1ccc2[nH]c(NC(=O)OC)nc2c1` (stereo not shown) [ONC0004848, albendazole oxide ricobendazole]: the “% viability” value turned out to be 129%.

Regarding `NC(=O)OCC(COC(N)=O)c1ccccc1` [ONC0001418, felbamate], the “% viability” value was determined as 64.05%.

As for `COC(=O)Nc1nc2cc(SC(C)C)ccc2[nH]1` [ONC0002907, methiazole], the “% viability” value was determined as 79.6%.

On to `[O-][n+]1cccc(CO)c1` [ONC0002748, mepiroxol], for which the “% viability” value was determined as 76.99%.

On to `OC(CC1c2ccccc2-c2cncn21)C1CCCCC1` (stereo not shown) [ONC0005143, nlg919], for which the “% viability” value is 124.3%.

In the case of `CC1=CC(=C(c2ccc(N)cc2)c2ccc(N)cc2)C=CC1=N` [ONC0002809, basic fuchsin], the “% viability” value is reported as 79.53%.

Take `CN1CCC(Nc2ncc3ncnc(Nc4ccc(F)c(Cl)c4)c3n2)CC1` [ONC0003553, bibx1382]: the “% viability” value is given as 119.2%.

Take `COC(=O)Nc1ccc(-c2nc(N3CCOCC3)c3cnn(C4CCN(C(=O)OC)CC4)c3n2)cc1` [ONC0004862, wye354]: the “% viability” value worked out at 106.5%.

Turning to `COC(=O)N[C@H](C(=O)N[C@@H](Cc1ccccc1)[C@@H](O)CN(Cc1ccc(-c2ccccn2)cc1)NC(=O)[C@@H](NC(=O)OC)C(C)(C)C)C(C)(C)C` [ONC0004590, atazanavir sulfate], the “% viability” value is 85.69%.

Turning to `C[C@@H]1O[C@@H](O[C@@H]2[C@H](Oc3cc(O)c(C(=O)CCc4ccc(O)cc4)c(O)c3)O[C@H](CO)[C@@H](O)[C@@H]2O)[C@H](O)[C@H](O)[C@H]1O` [ONC0005050, naringin dihydrochalcone naringin dc], the “% viability” value was found to be 103%.

`CNC[C@H](O)[C@@H](O)[C@H](O)[C@H](O)CO` [ONC0003260, meglumine]: the “% viability” value is on record as 54.44%.

For `Nc1ccc(S(=O)(=O)Nc2cnc3ccccc3n2)cc1` [ONC0000645, sulfaquinoxaline sodium], the “% viability” value came out at 110.7%.

Turning to `CO[C@@H]1[C@H](OC(=O)NC(=O)CCl)CC[C@]2(CO2)[C@H]1[C@@]1(C)O[C@@H]1CC=C(C)C` [ONC0005625, tnp470], the “% viability” value is given as 99.97%.

For the compound `N#CC(c1ccnc(OCc2ccc(CN3CCOCC3)cc2)n1)c1nc2ccccc2s1` (stereo not shown) [ONC0002169, bentamapimod], the “% viability” value is 73.2%.

For `CCOC(=O)[C@H](C)C[C@@H](Cc1ccc(-c2ccccc2)cc1)NC(=O)CCC(=O)O` [ONC0001801, sacubitril hemicalcium salt], the “% viability” value is 87.87%.

On to `CC(=O)Oc1ccccc1C(=O)Oc1ccccc1C(=O)O` [ONC0002931, acetylsalicylsalicylicacid], for which the “% viability” value came to 83.85%.

Turning to `Cc1cc(O)c(C(C)C)cc1Cl` [ONC0003772, chlorothymol], the “% viability” value was found to be 114.7%.

On to `N[C@H](C(=O)O)[C@@H]1CC(Cl)=NO1` [ONC0005468, acivicin], for which the “% viability” value worked out at 102.3%.

For the compound `O=c1[nH]cnc2c1cnn2[C@@H]1O[C@H](CO)[C@@H](O)[C@H]1O` [ONC0003692, allopurinol riboside], the “% viability” value worked out at 73.69%.

For `CCOC(=O)[C@H](CCc1ccccc1)N[C@@H](C)C(=O)N(CC(=O)O)C1Cc2ccccc2C1` [ONC0003416, delapril hcl], the “% viability” value turned out to be 98.59%.

Take `CCc1cc(O)c(Oc2ccc(C(N)=O)cc2F)cc1F` [ONC0000978, mut056399]: the “% viability” value came out at 79.67%.

On to `O=C(NC1CCC1)c1ccc(C#Cc2cccc(F)c2)nc1` [ONC0001908, vu0360172], for which the “% viability” value was found to be 80.38%.

Consider `C[C@H]1c2cccc(O)c2C(=O)C2C(=O)[C@]3(O)C(=O)C(C(N)=O)C(=O)[C@@H](N(C)C)[C@@H]3[C@@H](O)[C@@H]21` (stereo partly shown) [ONC0000682, doxycycline hydrochloride], for which the “% viability” value is 94.49%.

Consider `C[C@H](Cn1cnc2c(N)ncnc21)OCP(=O)(O)O` [ONC0000472, tenofovir], for which the “% viability” value is 92.43%.

On to `CNC(=O)c1c(I)c(C(=O)NCC(=O)Nc2c(I)c(C(=O)O)c(I)c(C(=O)NCCO)c2I)c(I)c(N(C)C(C)=O)c1I` [ONC0002924, ioxaglicacid], for which the “% viability” value was 70.63%.

For `CCCCNc1cc(C(=O)O)cc(S(N)(=O)=O)c1Oc1ccccc1` [ONC0000694, bumetanide], the “% viability” value amounted to 95.54%.

As to `CCO[C@@H](Cc1ccc(OCCc2ccc(OS(C)(=O)=O)cc2)cc1)C(=O)O` [ONC0003810, tesaglitazar], the “% viability” value was determined as 59.12%.

With `C=CCN1C[C@H](C)N([C@H](c2ccc(C(=O)N(CC)CC)cc2)c2cccc(OC)c2)C[C@H]1C` [ONC0000799, snc80], the “% viability” value is listed as 64.2%.

`CC(C)(C)c1ccc(C(=O)CCCN2CCC(OC(c3ccccc3)c3ccccc3)CC2)cc1` [ONC0004504, ebastine]: the “% viability” value was found to be 69.16%.

As to `COc1ccc2[nH]c(-c3ccccc3)c(CCNC(C)=O)c2c1` [ONC0003628, 2phenylmelatonin], the “% viability” value came out at 93.21%.

Regarding `CC1(C)CC[C@]2(NC(=O)C(C)(F)F)CC[C@]3(C)[C@H](C(=O)C=C4[C@@]5(C)C=C(C#N)C(=O)C(C)(C)[C@@H]5CC[C@]43C)[C@@H]2C1` [ONC0004376, omaveloxolone rta408], the “% viability” value came to 135.7%.

Take `CCCCCC(O)c1cccc(OCc2ccc3ccccc3n2)c1` (stereo not shown) [ONC0005481, rev5901 l655238]: the “% viability” value is reported as 92.78%.

`CC[C@H](NC(=O)c1c(O)c(-c2ccccc2)nc2ccccc12)c1ccccc1` [ONC0001800, talnetant]: the “% viability” value came to 107.6%.

With `O=c1ccn([C@@H]2O[C@H](CO)[C@@H](O)[C@H]2O)c(=O)[nH]1` [ONC0004405, uridine], the “% viability” value was 127.6%.

`O=C1Nc2c(ccc(Cl)c2Cl)C1=NO` [ONC0002536, ns309]: the “% viability” value stood at 65.12%.

For the compound `O=[N+]([O-])O[C@@H]1CO[C@H]2[C@@H]1OC[C@@H]2O` [ONC0002345, isosorbide mononitrate], the “% viability” value came to 104%.

As to `COc1ccc2c(c1)-c1nn(CCCN(C)C)c3ccc([N+](=O)[O-])c(c13)N2` [ONC0005428, pyrazoloacridine], the “% viability” value is 140.4%.

With `O=C(NCCCN1CCCCCC1)C(c1ccccc1)C1CCCCC1` (stereo not shown) [ONC0000015, mr16728], the “% viability” value is 94.36%.

Turning to `O=C(NO)c1cnc(N2CCN(S(=O)(=O)c3ccc4ccccc4c3)CC2)nc1` [ONC0003397, r306465], the “% viability” value was found to be 66.28%.

In the case of `C[C@@H](c1nc(-c2ccc(C#N)cc2)cs1)[C@](O)(Cn1cncn1)c1cc(F)ccc1F` [Isavuconazole], the “% viability” value was 3.591%.

Take `Cc1nc2cc(-n3ncc(C(=O)c4cc5ccccc5[nH]4)c3N)ccc2[nH]1` [ONC0004455, ch5183284 debio1347]: the “% viability” value is 110.2%.
